Experimental data taken from paper PMC12701574.

Tested on: MBP-GmZF-HD1
Assay: EMSA
Conditions: LightShift Chemiluminescent EMSA kit; room temperature 30 min; 6% native PAGE, 0.5x TBE, 60 V, 1 h, 4 C; binding buffer, salt and pH not stated; recombinant protein; protein details: MBP; label: 5' biotin

Q: Does “TTAAACTTGTAATTCCCGTAT (double strand) [GmSPS17 promoter cis-element probe]” bind?
A: Result: binds

For at least one entry, the source does not settle the construct or the ends of the probe.
